Test results published in article PMC3870133.
Results are given in words; binding and its absence hold for the method and conditions named. In cells and extracts the contact can be indirect. Here binding means that the protein was enriched with, or labelled near, the bait; the list need not be complete.

The chains behind the UniProt entries cited, without tags or fusion partners. Where a name states a change or a piece, a line headed by the entry shows the natural chain unless it says otherwise. Residues count along the entry.
UniProt P30561: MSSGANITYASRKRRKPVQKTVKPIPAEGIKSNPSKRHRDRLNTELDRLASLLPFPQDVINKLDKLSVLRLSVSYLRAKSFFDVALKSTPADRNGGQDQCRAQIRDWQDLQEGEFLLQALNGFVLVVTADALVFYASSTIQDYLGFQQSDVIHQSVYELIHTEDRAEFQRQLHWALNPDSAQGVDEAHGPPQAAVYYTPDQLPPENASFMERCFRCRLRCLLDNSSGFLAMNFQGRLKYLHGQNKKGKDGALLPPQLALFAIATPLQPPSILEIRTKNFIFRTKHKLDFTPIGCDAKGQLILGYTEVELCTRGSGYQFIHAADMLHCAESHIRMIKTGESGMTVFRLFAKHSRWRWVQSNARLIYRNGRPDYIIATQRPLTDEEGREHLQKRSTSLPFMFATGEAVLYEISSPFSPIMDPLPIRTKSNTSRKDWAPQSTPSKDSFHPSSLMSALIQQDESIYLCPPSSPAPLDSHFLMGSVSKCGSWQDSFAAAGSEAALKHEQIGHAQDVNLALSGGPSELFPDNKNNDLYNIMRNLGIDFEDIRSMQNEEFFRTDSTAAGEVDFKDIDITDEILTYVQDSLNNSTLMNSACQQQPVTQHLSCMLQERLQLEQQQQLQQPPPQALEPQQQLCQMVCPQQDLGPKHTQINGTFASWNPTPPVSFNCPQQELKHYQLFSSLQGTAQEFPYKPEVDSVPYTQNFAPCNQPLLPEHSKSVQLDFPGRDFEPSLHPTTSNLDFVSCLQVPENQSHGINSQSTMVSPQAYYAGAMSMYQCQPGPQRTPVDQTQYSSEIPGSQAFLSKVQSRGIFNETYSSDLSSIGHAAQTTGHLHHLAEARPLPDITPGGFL
UniProt Q9R0T7: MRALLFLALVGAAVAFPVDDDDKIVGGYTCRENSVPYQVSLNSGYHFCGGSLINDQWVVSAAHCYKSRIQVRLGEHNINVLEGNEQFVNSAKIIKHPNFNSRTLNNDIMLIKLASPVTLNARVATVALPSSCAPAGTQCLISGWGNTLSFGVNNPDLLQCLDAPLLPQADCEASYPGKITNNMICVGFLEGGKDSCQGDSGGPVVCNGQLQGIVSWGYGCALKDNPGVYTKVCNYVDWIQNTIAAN
UniProt Q03265, residues 44-553: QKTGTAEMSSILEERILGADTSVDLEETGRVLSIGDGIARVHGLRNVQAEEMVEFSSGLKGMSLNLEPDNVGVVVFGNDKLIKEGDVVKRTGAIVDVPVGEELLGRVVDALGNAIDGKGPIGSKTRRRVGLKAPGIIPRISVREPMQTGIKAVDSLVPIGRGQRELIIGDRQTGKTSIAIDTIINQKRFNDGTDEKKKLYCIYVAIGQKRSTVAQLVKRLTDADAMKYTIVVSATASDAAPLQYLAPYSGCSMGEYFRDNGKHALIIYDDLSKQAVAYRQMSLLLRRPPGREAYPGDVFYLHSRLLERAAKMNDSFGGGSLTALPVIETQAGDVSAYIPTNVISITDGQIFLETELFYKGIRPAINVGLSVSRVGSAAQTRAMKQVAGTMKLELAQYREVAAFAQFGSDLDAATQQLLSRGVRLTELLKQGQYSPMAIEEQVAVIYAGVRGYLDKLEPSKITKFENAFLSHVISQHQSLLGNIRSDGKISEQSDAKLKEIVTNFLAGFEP
UniProt Q9JLV1: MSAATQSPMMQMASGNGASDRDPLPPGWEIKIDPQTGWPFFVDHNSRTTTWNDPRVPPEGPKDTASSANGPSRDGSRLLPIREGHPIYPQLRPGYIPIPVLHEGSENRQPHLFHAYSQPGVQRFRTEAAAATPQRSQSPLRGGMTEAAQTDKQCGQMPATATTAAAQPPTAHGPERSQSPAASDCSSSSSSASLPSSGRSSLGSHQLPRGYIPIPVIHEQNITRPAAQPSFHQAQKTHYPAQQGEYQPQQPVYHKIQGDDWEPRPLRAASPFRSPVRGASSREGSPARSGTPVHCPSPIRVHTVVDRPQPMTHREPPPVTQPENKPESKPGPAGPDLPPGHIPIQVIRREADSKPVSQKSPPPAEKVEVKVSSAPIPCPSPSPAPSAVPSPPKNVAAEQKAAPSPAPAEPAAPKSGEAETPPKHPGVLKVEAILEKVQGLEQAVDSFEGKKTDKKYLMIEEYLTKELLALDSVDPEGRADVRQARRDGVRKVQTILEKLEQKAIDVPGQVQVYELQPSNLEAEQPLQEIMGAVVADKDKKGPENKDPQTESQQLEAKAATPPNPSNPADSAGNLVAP

Target: AHR-TAP (murine aryl-hydrocarbon receptor with C-terminal TAP tag) (murine) (UniProt P30561)
Assay: affinity purification with mass spectrometry; AHR-TAP as bait from lysate of stable Hepa1c1c7 cells treated with DMSO (0.01%) or TCDD (10 nM; 30, 120 or 240 min); IgG Sepharose, AcTEV cleavage, calmodulin resin, 4°C; eluate separated on gel, bands digested and analysed by LC-MS/MS; GFP-TAP as negative control; 3 independent experiments

binding | Substance
binds | Tesp4 (from UniProt Q9R0T7)
binds | ATP synthase F1 complex, alpha subunit (ATP5α1) (from UniProt Q03265 44-553)
binds | Bcl2-associated athanogene 3 (Bag3) (from UniProt Q9JLV1 1-577)
